Here are results for 2 substances from patent publication USRE45610 (dated 2015).

Non-standard residues stand in square brackets, D forms with d. βAla = NCCC(=O)O

The nature of the series: general procedure: Fmoc solid-phase peptide synthesis; 2-chlorotrityl resin; DIPCDI/HOBt. As to conditions: whole synthesis, MeCN (+0.07% TFA) in H2O (+0.1% TFA) gradient, ES-MS for molecular weight.

In the case of Ac-[βAla]HCH-OH, the “crude HPLC purity” value was “greater than 85%”.
For the substance Ac-[βAla]HSH-OH, the “crude HPLC purity” value is on record as “greater than 90%”.
